Among the data in PMC7819943, “Rice protein-binding microarrays: a tool to detect cis-acting elements near promoter regions in rice” are binding signal values, retold here.

Sequences of proteins named here, by UniProt entry; tags and fusion partners are left off.
UniProt Q0JBA9, entry or part of it: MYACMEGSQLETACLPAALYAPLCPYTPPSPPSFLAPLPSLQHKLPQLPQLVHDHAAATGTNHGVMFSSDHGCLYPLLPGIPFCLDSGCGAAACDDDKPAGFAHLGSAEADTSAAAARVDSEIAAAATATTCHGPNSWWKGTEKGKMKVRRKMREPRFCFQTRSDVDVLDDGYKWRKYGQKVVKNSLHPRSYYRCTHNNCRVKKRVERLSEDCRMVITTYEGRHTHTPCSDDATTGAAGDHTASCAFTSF

Some of the results follow.

In this test the target is OsWRKY34 (Oryza sativa, UniProt Q0JBA9 1-250). The test can be described thus: protein-binding microarray (RPBM); PBS, 2% BSA, 51.3 ng/ul salmon testes DNA, 50 uM zinc acetate, 200 nM TF, 25 C, 1 h; high values mean tight binding. The note with it: protein: recombinant; tags: N-terminal polyhistidine and DsRed monomer fusion (pET32a); label: CyDye5-dUTP incorporated in the synthesized complementary strand; 3' TTTTT single-stranded linker to array surface; dsDNA, one strand shown. In outline: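 The binding signal is fluorescence intensity per array feature (arbitrary units). Readings came from an Axon 4000B scanner after a washed, 2% BSA-blocked, double-stranded custom Agilent array had been incubated for 1 h at 25 °C with 200 nM protein and 50 µM zinc acetate. The protein was a Ni–NTA-purified transcription factor fused N-terminally to polyhistidine and DsRed, expressed in E. coli BL21-CodonPlus.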
Turning to “CCGATCTCCATCTCTTAGAGTCTGCCATGTTATCTCATAACGGAGTCACCTAGTGCAG”, the binding signal is 9050 fluorescence intensity (a.u.). On to “CACTTTCCTTTTTTAAAATTTTTAATGTTTATTACAATTGCGGAGTCACCTAGTGCAG”, for which the binding signal was 8890 fluorescence intensity (a.u.). “TTATTTTTAGTTAATTTCATAATTTGTACTGATTAATTTACGGAGTCACCTAGTGCAG”: the binding signal was 9280 fluorescence intensity (a.u.). In the case of “CAACTAATTCTTCTTCTTCTTTTGTTTGGCACGGCCCATACGGAGTCACCTAGTGCAG” it was 8590 fluorescence intensity (a.u.); in that of “GTTCATCGTTGTGCTCAGCTGCTATTAGCCCATGTCAAGACGGAGTCACCTAGTGCAG”, 8440 fluorescence intensity (a.u.). On to “TATGCTGGTTAGTGTTGCTTTTCTTGGTAATATTTAAGGTCGGAGTCACCTAGTGCAG”, for which the binding signal was 9800 fluorescence intensity (a.u.).

Turning to “ACTATGTAATTTCTCATCTTTGTTAGGTTGGTTTTTTATTCGGAGTCACCTAGTGCAG”, the binding signal is 11200 fluorescence intensity (a.u.). Consider “CTAGGCTGAGTCATTCTCTTATCCAATCGCCCTTGCTTATCGGAGTCACCTAGTGCAG”, for which the binding signal is 12200 fluorescence intensity (a.u.). As for “TTTATGTAGTTCACTCAAACGGCAATTCCTGTGTTTTTCCCGGAGTCACCTAGTGCAG”, the binding signal was 8360 fluorescence intensity (a.u.).

In the case of “AGTAATGGTTGAAGTGTGTTTAGTTTGTTGCCTTACCAAACGGAGTCACCTAGTGCAG”, the binding signal is 8320 fluorescence intensity (a.u.). For the sequence “CCCAGTCTGTGTGTGAGTGTGTGTGGTCTGTGGAGTGTATCGGAGTCACCTAGTGCAG”, the binding signal is 9130 fluorescence intensity (a.u.). Turning to “ATTATCAAAACATGCACATCTTCCTGTTTCGCTTAAGTCTCGGAGTCACCTAGTGCAG”, the binding signal was 8910 fluorescence intensity (a.u.).

For the sequence “TTTTTATGTTACATATTTTTTTGTTTTGTTTACCAGTATACGGAGTCACCTAGTGCAG”, the binding signal is 11100 fluorescence intensity (a.u.). With “TTCACTCTTCTTCTCTCGTACTCCACTGTACTGCACCTACCGGAGTCACCTAGTGCAG”, the binding signal was 9480 fluorescence intensity (a.u.). For the sequence “CGGGATATGATACACTCGTCGCAACGTTCGAATTCTCCGTCGGAGTCACCTAGTGCAG”, the binding signal was 8730 fluorescence intensity (a.u.).

As to “CGCGCTTGTGTTTCATGACTATAAGTTACTTATATACAAGCGGAGTCACCTAGTGCAG”, the binding signal was 8220 fluorescence intensity (a.u.).

On to “GCTTGAATTTCTAAAAAGTATCTTTTTCCTATGTATCATTCGGAGTCACCTAGTGCAG”, for which the binding signal was 9280 fluorescence intensity (a.u.). As for “TCTCCGTCTCTTTTACCTCAGTCTCGCGTATACCCTAGCACGGAGTCACCTAGTGCAG”, the binding signal was 11600 fluorescence intensity (a.u.). “ACGAAGGATTGGTTTGGTCGCTTTCTCGGTTGCTGCTCGGCGGAGTCACCTAGTGCAG”: the binding signal is 9230 fluorescence intensity (a.u.).

As to “ACCAATGCATTCTTTCGAAAACTGTTTATAGGGTAGGGGTCGGAGTCACCTAGTGCAG”, the binding signal is 11400 fluorescence intensity (a.u.).

For the sequence “TCTACTTTTTCTCTTCACTGGGTTGGGATTTGGTGTCTGCCGGAGTCACCTAGTGCAG”, the binding signal is 9390 fluorescence intensity (a.u.). As for “CCTTATATCCATCAGCTCTTTACAACACCTTAATCCTACACGGAGTCACCTAGTGCAG”, the binding signal was 9930 fluorescence intensity (a.u.). Turning to “ATGGTTGGTTCTTGTGTGTCCCTAAGCGTGAAAAAATATCCGGAGTCACCTAGTGCAG”, the binding signal is 12400 fluorescence intensity (a.u.).
